PubChem BioAssay AID1259254 – NCATS | 2017

- Purpose: 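Gene knock-downs that lead to re-replication, shown by excess G2 DNA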 (primary screen)
- Cells: human HCT116 colorectal cancer cells
- Reagent: single siRNA against human genes
- Timing: 3 days
- Read-out: 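Nuclei stained with Hoechst and imaged; cell-cycle phase assigned by DNA content; G2 share scaled per plate, non-targeting siRNA 0%, GMNN siRNA 100%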
- Reading the numbers: G2 robust z-score and G2 cells, % of GMNN control: higher = more G2 cells, more excess DNA replication
- Hit rule: 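Active siRNAs have a G2 robust z of 5 or more median absolute deviations over the median, which in these data means about 38% or higher of GMNN control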
This is one part, drawn at random, of about 59,000 reagents. About 1,550 of all reagents (2.6%) count as active. 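G2 share is only a proxy for re-replication; each gene was hit by three separate siRNAs, and active genes were retested.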 Reagents against one gene are numbered here. Not all columns of the deposit are shown. Reagent sequences are not shown. Not stated in the record: the amount of reagent.

| Target gene | reagent no. | G2 robust z-score | G2 cells, % of GMNN control | call |
| --- | --- | --- | --- | --- |
| PDE7A (phosphodiesterase 7A) | 1 | 3.64 | 28.6 | inactive |
| PDE7A (phosphodiesterase 7A) | 2 | -0.322 | 0.699 | inactive |
| PDE7A (phosphodiesterase 7A) | 3 | 0.502 | 6.5 | inactive |
| MTMR6 (myotubularin related protein 6) | 1 | 5.93 | 44.7 | active |
| MTMR6 (myotubularin related protein 6) | 2 | 0.616 | 7.3 | inactive |
| MTMR6 (myotubularin related protein 6) | 3 | -0.887 | -3.27 | inactive |
| HTR6 (5-hydroxytryptamine receptor 6) | 1 | -1.11 | -4.86 | inactive |
| HTR6 (5-hydroxytryptamine receptor 6) | 2 | 5.12 | 39 | active |
| HTR6 (5-hydroxytryptamine receptor 6) | 3 | 4.95 | 37.8 | inactive |
| BMS1P21 (BMS1 pseudogene 21) | 1 | -0.61 | -1.32 | inactive |
| BMS1P21 (BMS1 pseudogene 21) | 2 | -0.465 | -0.301 | inactive |
| BMS1P21 (BMS1 pseudogene 21) | 3 | 6.4 | 48 | active |
| CWC15 (CWC15 spliceosome associated protein) | 1 | -0.873 | -3.17 | inactive |
| CWC15 (CWC15 spliceosome associated protein) | 2 | 1.25 | 11.7 | inactive |
| CWC15 (CWC15 spliceosome associated protein) | 3 | -0.337 | 0.597 | inactive |
| EXPH5 (exophilin 5) | 1 | 3.28 | 26 | inactive |
| EXPH5 (exophilin 5) | 2 | 0.452 | 6.15 | inactive |
| EXPH5 (exophilin 5) | 3 | -0.636 | -1.5 | inactive |
| TRIM29 (tripartite motif containing 29) | 1 | 0.368 | 5.56 | inactive |
| TRIM29 (tripartite motif containing 29) | 2 | -0.739 | -2.23 | inactive |
| TRIM29 (tripartite motif containing 29) | 3 | 2.32 | 19.3 | inactive |
| METTL25B (methyltransferase like 25B) | 1 | -0.505 | -0.587 | inactive |
| METTL25B (methyltransferase like 25B) | 2 | -1.14 | -5.06 | inactive |
| METTL25B (methyltransferase like 25B) | 3 | -0.458 | -0.253 | inactive |
| GYPB (glycophorin B (MNS blood group)) | 1 | 2.3 | 19.1 | inactive |
| GYPB (glycophorin B (MNS blood group)) | 2 | 2.01 | 17.1 | inactive |
| GYPB (glycophorin B (MNS blood group)) | 3 | 3.96 | 30.8 | inactive |
| FOXO4 (forkhead box O4) | 1 | 0.686 | 7.8 | inactive |
| FOXO4 (forkhead box O4) | 2 | 1.48 | 13.4 | inactive |
| FOXO4 (forkhead box O4) | 3 | 0.228 | 4.57 | inactive |

2 of these entries, reformatted:
{"Target gene":"CWC15 (CWC15 spliceosome associated protein)","reagent no.":3,"G2 robust z-score":-0.337,"G2 cells, % of GMNN control":0.597,"call":"inactive"}
{"Target gene":"EXPH5 (exophilin 5)","reagent no.":1,"G2 robust z-score":3.28,"G2 cells, % of GMNN control":26,"call":"inactive"}
